Measurements reported in PubChem BioAssay AID504764 (Drosophila RNAi Screening Center, 2011).

Assay: 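Genes whose knock-down alters Notch-dependent transcription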 (primary screen)
System: Drosophila Kc167 cells
Knock-down reagent: long dsRNA against Drosophila genes
Time to read-out: about 5 days (4 days dsRNA, then 24 h after transfection)
Conditions: transfection of constitutively active membrane-tethered Notch lacking the extracellular domain, read 24 h later
Read-out: 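Firefly luciferase from an E(spl)m3 reporter with active Notch, plus control-promoter and uninduced reporter wells for normalisation; unnormalised counts, duplicate wells a and b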
Scale: induced reporter light, run 1, well a and induced reporter light, run 1, well b: higher = more light from the Notch target reporter with active Notch; control promoter light, run 1, well a and control promoter light, run 1, well b: higher = more light from the viral control promoter (cell number, transfection, viability); uninduced reporter light, run 1, well a: higher = more light from the Notch target reporter without active Notch
Hit rule: 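Hit if the duplicate-averaged log2 ratio of induced to control-promoter light gives a plate-wise z beyond ±2, or induced to uninduced beyond ±1.8; weak-control or discordant-duplicate wells dropped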
Calls: active = modifier hit (raised or lowered Notch signal); inactive = not a hit
In all, the deposit lists about 22,000 reagents; below is a random part of those with a known target gene and a result. Over the whole deposit, 403 (1.9%) got an active call. 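Unnormalised raw counts per well; ratio z-scores behind the hit calls and whether each hit raises or lowers signal are not deposited.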 A number with no mark means an inactive call. Names joined by + are all predicted targets of the reagent. Not stated in the record: the amount of reagent.

induced reporter light, run 1, well a	induced reporter light, run 1, well b	control promoter light, run 1, well a	control promoter light, run 1, well b	uninduced reporter light, run 1, well a	gene	PubChem SID
1.61e5	1.36e5	1.38e5	1.53e5	9290	CG13531	SID104183965
1.92e5	1.54e5	1.61e5	2.51e5	8415	CG34247	SID104189725
1.42e5	1.51e5	2.18e5	1.81e5	19715	CG13309	SID104189772
1.54e5	1.62e5	1.40e5	1.40e5	13082	dpr9	SID104194326
2.14e5	2.11e5	1.49e5	1.57e5	16370	dpr9	SID104194777
2.12e5	1.87e5	1.72e5	1.74e5	14750	dpr9	SID104194778
1.01e5	1.13e5	80540	93995	9680	put	SID104196831
1.69e5	1.43e5	1.89e5	1.96e5	14740	Obp46a	SID104186012
3330	3275	7445	7760	380	Jon99Cii	SID104196650
1.44e5	1.23e5	1.21e5	41865	11515	Fit1	SID104188242
1.04e5	1.01e5	1.67e5	1.18e5	5395	eIF1	SID104188312
1.80e5	1.53e5	1.52e5	1.59e5	10545	Rpp25	SID104184794
33505	37395	43850	31760	2188	CG43861 + CG12508 (retired record)	SID104181962
65160	62260	71530	46380	8500	Tsf1	SID104200088
1.02e5	1.28e5	1.48e5	1.55e5	13110	Akt	SID104193900
83715	81870	33870	13060	10805	CG10479	SID104189525
1.76e5	1.93e5	1.92e5	1.76e5	19750	Prosbeta4R2	SID104180295
1.45e5	1.29e5	1.38e5	1.14e5	10305	G6P	SID104180206
1.07e5	1.04e5	1.25e5	1.20e5	9630	CG33453	SID104185574
1.79e5	1.67e5	2.03e5	1.87e5	12885	CG10962	SID104198213
1.11e5	1.00e5	1.72e5	1.47e5	10595	Nph	SID104196134
1.66e5	1.91e5	3.05e5	2.54e5	13855	Nepl21	SID104193925
1.47e5	1.44e5	3.19e5	2.19e5	7540	Fad2	SID104190957
1.42e5	1.45e5	1.59e5	1.59e5	8755	prom	SID104184476
1.10e5	1.05e5	1.04e5	1.17e5	10355	pico	SID104199222
1.13e5	1.05e5	2.23e5	2.58e5	11705	Hmbs	SID104188424
1.69e5 (active)	1.34e5	1.19e5	1.19e5	7720	Kdm5	SID104182925
89210	1.07e5	1.63e5	1.38e5	5330	mge	SID104188513
1.39e5	1.07e5	1.53e5	1.30e5	10188	Septin5	SID104186635
63700	59490	87070	63965	4360	CG32100	SID104189517
91770	74605	1.08e5	68795	5840	CG32100	SID104190123
1.54e5	1.62e5	1.09e5	80925	14365	Adk2	SID104189619
1.89e5	1.98e5	2.19e5	1.86e5	13715	CARPB	SID104198229
1.14e5	1.05e5	1.82e5	1.52e5	8138	CARPB	SID104198230
2.02e5	2.09e5	2.55e5	2.20e5	10535	l(3)72Dr	SID104190270
94210	83695	1.09e5	98010	13860	CG9123	SID104199948
18430	20065	21590	29835	1510	SkpA	SID104198625
74965	1.16e5	50105	61510	6400	Suv3	SID104192127
1.63e5	1.78e5	2.31e5	2.03e5	14825	unpg	SID104187505
6965	8020	11545	8755	1110	RpLP2	SID104187331
1.29e5	91080	1.24e5	94210	11270	CG31769	SID104181153
2.17e5	2.31e5	1.85e5	1.86e5	16360	ck	SID104183301
53585	74225	75640	56785	5285	CG6830	SID104195916
1.56e5	1.42e5	1.14e5	1.16e5	10130	Trax	SID104195501
1.91e5	2.37e5	2.63e5	2.81e5	12235	Pglym78	SID104196579
1.64e5	1.19e5	2.12e5	2.19e5	13185	TwdlR	SID104194528
1.64e5	1.88e5	1.92e5	2.02e5	14532	mRRF2	SID104195935
1.92e5	2.06e5	2.21e5	2.53e5	17850	CG17930	SID104195084
92905	93160	1.03e5	89720	8125	dmpd	SID104185884
1.69e5	1.31e5	1.80e5	1.61e5	13970	Or45b	SID104187280
96535	1.36e5	1.61e5	1.93e5	8795	pxb	SID104192902
2.64e5	2.89e5	2.17e5	2.45e5	20420	pxb	SID104194788
2.25e5	2.62e5	2.12e5	2.41e5	17950	pxb	SID104194789
2.36e5	2.30e5	2.36e5	2.20e5	18610	d4	SID104184673
2.27e5	2.51e5	2.88e5	2.62e5	20832	Ac76E	SID104189434
1.10e5	1.09e5	61730	95680	9870	Ac76E	SID104189454
2.49e5	2.76e5	3.70e5	3.78e5	16250	glob1	SID104196751
25690	24270	20690	28780	7338	CG3124	SID104184131
2.22e5	2.38e5	1.95e5	2.08e5	18682	eIF4EHP	SID104193445
1.84e5	1.36e5	1.87e5	2.21e5	13660	eIF4EHP	SID104194057
96645	1.02e5	93600	1.10e5	9040	CG5808	SID104193916
1.92e5	1.75e5	2.45e5	1.48e5	13765	CG9825	SID104184361
2.14e5	1.81e5	2.00e5	2.02e5	14985	CG17819	SID104195071
1.74e5	1.61e5	2.58e5	2.86e5	14670	CG46441	SID104195353

Targets listed so far whose gene name starts with S or s:
induced reporter light, run 1, well a	induced reporter light, run 1, well b	control promoter light, run 1, well a	control promoter light, run 1, well b	uninduced reporter light, run 1, well a	gene	PubChem SID
1.39e5	1.07e5	1.53e5	1.30e5	10188	Septin5	SID104186635
18430	20065	21590	29835	1510	SkpA	SID104198625
74965	1.16e5	50105	61510	6400	Suv3	SID104192127
